This passage reports AC50 results from PubChem BioAssay AID445 (National Center for Advancing Translational Sciences (NCATS), 2006).

The other results are listed elsewhere or left out. The main result of the screen is listed elsewhere. These columns were measured beside it and carry no call. The list favours compounds with an active or inconclusive main result. Words in brackets tell the shape of the fitted curve; partial curves, single points and poor fits give uncertain potencies.

The nature of the assay: IkB Signaling. The conditions noted are these: ABC-DLBCL IkBa-CBG/CBR dual luciferase ratio (green luciferase fused to IkBa over red control in OCI-Ly3 lymphoma cells), 4 h; measured here: control luc red channel unless noted. The method, boiled down:
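Curves were fitted separately to fusion (green), unfused (red) and ratio luminescence, then classed by r2, magnitude and activity. Cells: OCI-Ly3, 4 h compound plus doxycycline at 37C; 10 uM MG-132 defined full response.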
For `O=C(Cn1c(-c2ccc(Cl)cc2)noc1=O)N1CCN(c2ccccc2F)CC1`, the AC50 is 39.8 µM [falling, partial curve].
For `c1ccc2c(c1)OCC(c1csc3ncnc(N4CCOCC4)c13)O2` (centres undefined) the value was 10 µM [falling, partial curve]; for `O=C(CSc1ccc2c(c1)OCCO2)Nc1ccc(Cl)cn1`, 31.6 µM [falling, partial curve].
Under `Cc1nonc1NC(=O)c1ccc(Cl)c(S(=O)(=O)N2CCCCC2)c1` stands 15.8 µM [falling, partial curve]; under `COc1cccc2c1Oc1ncccc1N(C(=O)CCC(=O)NCc1ccc(C)cc1)C2`, 15.8 µM [falling, single point]; under `Cc1cccc(OCCCn2c(CCNC(=O)C(C)(C)C)nc3ccccc32)c1`, 39.8 µM [falling, partial curve].
For the molecule `Cc1cccc(OCCSc2nc3ccc(NC(=O)COc4ccccc4)cc3s2)c1`, the AC50 is 3.16 µM [falling, partial curve].
Take `CCOCCCNC(=O)C(=O)Nc1c2c(nn1-c1ccc(OC)cc1)CSC2`: the AC50 is 3.98 µM [rising, single point].
For `COc1ccc(S(=O)(=O)Nc2cc3c(cc2NCc2ccccc2)n(C)c(=O)n3C)cc1` the value was 25.1 µM [falling, single point]; for `O=C(NC1=NC2CCCCC2N1)c1ccccc1` (centres undefined), 2.51 µM [falling, full curve, poor fit]; for `COc1ccc(C2CC(c3c(O)cc(C)oc3=O)=NCCS2)c(OC)c1` (centres undefined), 1 µM [rising, full curve, poor fit].
As to `Cc1cc(C)c(OCC(=O)N(Cc2cccc(F)c2)Cc2ccco2)c(C)c1`, the AC50 was 31.6 µM [falling, single point].
Regarding `CCOC(=O)c1ccc(NS(=O)(=O)c2ccc3[nH]c4c(c3c2)CCCCC4)cc1`, the AC50 is 15.8 µM [falling, partial curve].
As to `Cc1cccc(NC(=O)Cn2c(=O)oc3cc(S(=O)(=O)NC4CCCC4)ccc32)c1`, the AC50 is 25.1 µM [falling, partial curve].
For `O=C(CC1Sc2ccccc2NC1=O)Nc1cccc(C(=O)O)c1` (centres undefined) the value was 15.8 µM [falling, partial curve].
As for `Cn1nnnc1SCCCNCc1cccc(OCc2ccccc2Cl)c1`, the AC50 is 31.6 µM [falling, single point].
For `CCc1ccc2nc(N3CCN(C(=O)C4CC4)CC3)sc2c1` the value was 0.00794 µM [rising, full curve, poor fit]; for `CCN1C(=O)C(Cc2nc3ccccc3c(=O)n2-c2ccccc2)c2cc(Br)ccc21` (centres undefined), 31.6 µM [falling, single point].
As for `COc1ccc(C)cc1NC(=O)CSc1nc(=O)n(Cc2ccccn2)c2c1CCC2`, the concentration at half-maximal activity (AC50) was 7.94 µM [falling, partial curve].
On to `CC(=O)N1CCCc2cc(S(=O)(=O)Nc3ccc(C)c(F)c3)ccc21`, for which the AC50 is 0.126 µM [falling, full curve, poor fit].
For `Cc1cccc(C)c1NC(=O)CN1C(=O)c2cccc3cccc1c23` the value was 0.0251 µM [rising, full curve, poor fit]; for `CCOc1ccc(NC(=O)CN2C(=O)C3(SCC(=O)N3c3ccc(F)cc3)c3ccccc32)cc1` (centres undefined), 5.01 µM [falling, partial curve].
For `O=C(Nc1nc(-c2ccccn2)cs1)c1ccc(Cl)s1` the value was 1 µM [rising, partial curve] [measured here: IkB-luc green channel].
For `COc1ccc(CNC(=O)CCc2nc(-c3ccc(C)cc3)no2)c(OC)c1` the value was 31.6 µM [falling, single point].
In the case of `Cn1c(SCC(=O)N2CCc3ccccc32)nc2cccnc21`, the AC50 is 25.1 µM [falling, partial curve].
With `COc1cc(C(=O)Nc2nonc2-c2ccc(C)c(C)c2)cc(OC)c1OC`, the AC50 is 7.94 µM [falling, partial curve].
For `Cc1ccc(NC(=O)CSc2nc(-c3ccccc3Cl)nc3cc(=O)[nH]n23)c(C)c1` the value was 20 µM [falling, single point].
For `COC(=O)c1c(C)nn(-c2ccc(F)cc2)c1-n1cccc1` the value was 39.8 µM [falling, single point]; for `Nc1ccccc1C(=O)Nc1cccc(C(=O)O)c1`, 2.51 µM [falling, full curve]; for `O=C(CCCn1c(=S)[nH]c2ccc(Br)cc2c1=O)N1CCN(c2ccccn2)CC1`, 6.31 µM [falling, partial curve].
For `COc1cccc(N2CCN(C(=O)c3ccc(NC(=O)c4nsc5ccccc45)cc3)CC2)c1`, the AC50 is 0.0631 µM [falling, full curve].
For `COc1ccc(NC(=O)c2ccco2)cc1NC(=O)COc1ccc(Cl)cc1C` the value was 1.58 µM [rising, partial curve]; for `Cc1ccc(C(=O)NCc2ccc(F)cc2)cc1NC(=O)c1nsc2ccccc12`, 15.8 µM [falling, partial curve, poor fit].
Consider `CCN1C=CC(=C2C(=O)c3ccccc3C2=O)C=C1`, for which the AC50 was 25.1 µM [falling, single point].
Under `CCOCCCn1c(=N)c(C(=O)NCC2CCCO2)cc2c(=O)n3cccc(C)c3nc21` (centres undefined) stands 0.631 µM [falling, full curve, poor fit]; under `COC(=O)C1CCN(S(=O)(=O)c2cc3c4c(c2)CC(=O)N4CCC3)CC1`, 6.31 µM [rising, single point]; under `Cc1cccc(NS(=O)(=O)c2ccc3c(c2)CCN3C(=O)C2CCC2)c1`, 25.1 µM [falling, partial curve].
Under `O=C(Nc1cccc(F)c1)c1ccc(-c2ccccc2)s1` stands 0.0631 µM [falling, full curve]; under `O=C(c1cccs1)N1CCCc2cc(NS(=O)(=O)c3ccc(F)cc3F)ccc21`, 39.8 µM [falling, single point]; under `Cc1ccc(S(=O)(=O)c2cn(Cc3ccccc3Cl)c3ccc(F)cc3c2=O)cc1`, 12.6 µM [falling, partial curve].
For `COc1ccc2c(c1)NC(c1cccnc1)=NC(c1ccc(F)cc1)=N2` the value was 39.8 µM [falling, single point].
Take `CC(C)(C)N(Cc1ccccc1)C(=O)CSc1nnc(CNc2ccc(F)cc2)o1`: the AC50 is 25.1 µM [falling, partial curve].
Under `Cc1ccccc1Nc1c(-c2cccs2)nc2cccc(C)n12` stands 39.8 µM [falling, single point]; under `O=C(CSc1nc2c([nH]c3ccccc32)c(=O)n1-c1ccc(Cl)cc1)NCC1CCCO1` (centres undefined), 3.16 µM [rising, full curve]; under `CCOC(=O)c1c(C)oc2nc(C)nc(NCc3ccccc3OC)c12`, 25.1 µM [falling, partial curve].
For `COc1ccccc1NC(=O)Cn1c(=O)n(CCCCCC(=O)NCc2ccccc2)c(=O)c2sccc21` the value was 3.16 µM [falling, full curve]; for `COc1cccc(C(=O)Nc2ccccc2-c2nnc(-c3cccc(OC)c3)o2)c1`, 12.6 µM [falling, partial curve]; for `COc1ccc2oc(=O)c(-c3nc(-c4cccs4)no3)cc2c1`, 0.0316 µM [rising, full curve].
For `CC(=O)Cc1nsc(NC(=O)c2ccc(COc3ccc(C)cc3)o2)n1` the value was 0.2 µM [falling, full curve, poor fit].
Consider `O=S1(=O)C=C(Sc2nnc(-c3ccccc3)o2)c2ccccc21`, for which the AC50 was 0.631 µM [falling, full curve].
Under `COc1ccccc1-c1noc(-c2ccc(NC(C)C)c([N+](=O)[O-])c2)n1` stands 0.0126 µM [rising, full curve, poor fit]; under `COc1ccc2[nH]cc(S(=O)(=O)c3ccc(C)c(C)c3)c(=O)c2c1`, 10 µM [falling, partial curve]; under `Cc1nc(N2CCN(c3ccccc3)CC2)c2c3c(sc2n1)CCC3`, 15.8 µM [falling, partial curve].
For `COC(=O)COc1ccc(S(=O)(=O)Nc2ccc3c(c2)OCO3)cc1` the value was 20 µM [falling, partial curve].
Under `Cc1nn2cc(-c3ccc(-c4ccccc4)cc3)nc2s1` stands 39.8 µM [falling, single point]; under `COc1ccc(Cl)cc1NC(=O)CSC1=Nc2ccccc2C2=NC(CC(=O)NCc3cccs3)C(=O)N12` (centres undefined), 12.6 µM [falling, partial curve]; under `O=C(NCc1ccccc1)c1cnc(N2CCCCC2)c2ccccc12`, 39.8 µM [falling, single point].
As for `COc1cccc(Nc2nc3ccc(C)cc3nc2-n2nc(C)cc2C)c1`, the AC50 is 7.94 µM [falling, full curve].
Regarding `Cc1ccc(NC(=O)C2=CC(c3ccc4c(c3)OCO4)=NS(=O)(=O)N2C)cc1`, the AC50 is 39.8 µM [falling, single point].
Under `CCOc1cccc(C(=O)Nc2nnc(-c3ccco3)s2)c1` stands 10 µM [falling, partial curve]; under `Cn1c(=O)n(CCCc2ccccc2)c(=O)c2c1nc1n2CCN1c1ccc(F)cc1`, 20 µM [falling, partial curve]; under `CCOC(=O)c1cc2c(=O)n3ccccc3nc2n(Cc2ccco2)c1=NC(=O)c1ccc(OCC)cc1`, 0.00631 µM [falling, full curve, poor fit].
Turning to `COc1ccc(NC(=O)c2ccc(Cl)c(S(=O)(=O)N3CCc4ccccc4C3)c2)cn1`, the AC50 is 12.6 µM [falling, partial curve].
For `Cn1c(NC(=O)c2ccccc2NC(=O)C(C)(C)C)nc2ccccc21`, the AC50 is 5.01 µM [falling, partial curve].
